In patent publication US12656355B2, “Two phase indicator displacement assay” (The Florida State University Research Foundation, Inc., priority 2022, dated 2026):

Assay: Partitioning indicator displacement assay (PIDA), CTAB/octanol drops with blue 1 dye indicator
Assay type: physicochemical
Settings: for detection of analyte by PIDA with blue dye as an indicator (specificity): CTAB-blue 1 dye system, 7.5 mM CTAB octanol drops, 10 minutes (FIG. 7B)
Text: The organic drops with fully dissolved indicator were exposed to an aqueous phase containing the target analyte. Over time the target analyte displaced the indicator and partitioned into the organic phase. In this experiment, the sensor had various concentrations of CTAB dissolved into the organic phase and used the maximum saturation ratio of blue dye to CTAB (Mechanism paper) to saturate each organic phase solution with the indicator, blue FCF dye. The displacement of blue dye from the organic phase was measured by monitoring optical transmittance using a color camera.
Five concentrations (60 mM, 30 mM, 15 mM, 7.5 mM, and 3.75 mM) of CTAB in octanol were placed in a tube along with 50 μM of blue dye dissolved in D.I. water, set on a shaker and allowed to equilibrate. An array was made with a sample of each concentration with the blue dye; with 11 drops (replicates) of each concentration and viewed using a DinoLite microscope. Four-hundred μM of aqueous red dye was flowed into the array and a picture was taken before addition of red dye and then every 5 seconds over a 15 minute period. […] Images were analyzed in imageJ, using […] within each replicate and 25 points for background analysis. The replicates were then separated by channel as gray values of the micrographs, and data normalized into absorbance values by subtracting the original dye free data from each replicate. The replicates were averaged per concentration and the data was transferred into percent transmittance using the formula […].
The organic solute cetyltrimethylammonium bromide (CTAB) was purchased from Sigma-Aldrich (St. Louis, USA). Erioglaucine disodium salt (Blue 1) was purchased from Sigma-Aldrich (St. Louis, MO, USA). 10 mL of 6 mM, 3 mM, 1.5 mM, 0.75 mM, and 0.375 mM blue 1 dye dissolved in deionized water and added to separate tubes containing 2 mL of different concentrations of CTAB in octanol (60 mM, 30 mM, 15 mM, 7.5 mM, and 3.75 mM), set on a shaker and allowed to equilibrate. […]
Samples were imaged with a digital microscope (Dino-Lite Pro2 AD-413T or Dino-Lite Edge AM4115ZT) at 100 Å˜ magnification. […] The time dependent partitioning was recorded at one frame per 20 second intervals.
Images were analyzed in imageJ, using 10 points within each replicate and 25 points for background analysis. […] The data was then converted into absorbance using the formula […]. Using the absorbance data, and the measured initial blue dye concentrations, the data was converted to blue dye concentration and then the replicates were averaged per concentration and the standard deviation was calculated. […] The graphs are made from each of the 5 concentrations with their associated normalized absorbance values. […]

SMILES | detection of analyte by PIDA with blue dye as an indicator (specificity) | displacement of the blue dye indicator by analyte (all CTAB concentrations (3.75, 7.5, 15, 30 mM), given enough time)
Nc1ncnc2c1ncn2[C@@H]1O[C@H](COP(=O)([O-])OP(=O)([O-])OP(=O)(O)O)[C@@H](O)[C@H]1O.O.[Na+].[Na+] [ATP, Adenosine 5′-triphosphate disodium salt hydrate] | unable to detect | –
O=C(O)CC(O)(CC(=O)O)C(=O)O [citric acid] | unable to detect | –
COc1cc(S(=O)(=O)[O-])c(C)cc1N=Nc1c(O)ccc2cc(S(=O)(=O)[O-])ccc12.[Na+].[Na+] [red dye, Allura red AC] | specific | displacement of the blue dye indicator
